Data taken from PubChem BioAssay AID485353 (National Center for Advancing Translational Sciences (NCATS), 2010).
The campaign covered roughly 330,000 compounds. About 610 (0.18%) were called active. This list was built around the results that the source calls inconclusive (neither active nor inactive); the mix of calls is not that of the screen. Calls follow the shape of the full dose curve. Potencies of inconclusive entries are doubtful fits and often do not repeat.

Assay: qHTS of Yeast-based Assay for SARS-CoV PLP; also: nearly all actives have a fitted effect of over 55% in size
Conditions: S. cerevisiae expressing SARS-CoV PLpro; Potency: growth rescue; series mostly up to 32.9 µM
Potency is read from the fitted curve at half-maximal effect.

| SMILES | Potency |
| --- | --- |
| COc1cc([N+](=O)[O-])cc(/C=N/NC(=O)C(C)Nc2ccccc2C)c1O (stereo not given) | active: 22.4 µM |
| CC(=O)OC(C(=O)Nc1ccccc1)C(C)S(=O)(=O)c1ccccc1 (stereo not given) | inconclusive: 4.47 µM [activator, single point] |
| Cc1ccc(N2C(=O)c3ccccc3C2=O)cc1C | inconclusive: 1.26 µM [activator, partial curve, poor fit] |
| Cc1cc(Cl)ccc1NC(=S)NCc1cccs1 | inconclusive: 11.2 µM [activator, single point] |
| Cc1ccc(-c2[nH]c3cc(C(N)=O)ccc3c(=O)c2O)cc1 | inconclusive: 10 µM [activator, partial curve] |
| COc1ccc(CC(=O)NNC(=O)CCC(=O)Nc2cc(C)ccc2C)cc1 | inactive |
| COc1ccc(C2c3ccc4ccccc4c3Oc3ncn4nc(Cc5ccccc5)nc4c32)cc1OC (stereo not given) | inactive |
| CC(C)Cn1c(SCC(=O)N2CCc3ccccc3C2)nc(O)cc1=O | inactive |
| CCCC(=O)N(Cc1cc(=O)[nH]c2ccccc12)c1cccc(C)c1 | inactive |
| CCCCn1c(SCC(=O)NCc2cccs2)nc2c1c(=O)n(C)c(=O)n2C | inactive |
| O=C(COc1ccc2c3c(c(=O)oc2c1)CCC3)N[C@@H](Cc1ccccc1)C(=O)O | inactive |
| O=C(CCCOc1ccc(Cl)cc1Cl)N/N=C/c1ccccc1O | inconclusive: 20 µM [activator, single point] |
| CC(C)c1ccc(NC(=O)CN2C(=O)NC3(CCCC3)C2=O)cc1 | active: 3.55 µM |
| CCCC(=O)C1C(=O)CC(C)(C)C(c2cc(C)no2)C1=O (stereo not given) | inconclusive: 4.47 µM [activator, partial curve] |
| Cc1ccc(-n2cc(C(C)(C)C)[nH]c2=S)cc1 | inconclusive: 10 µM [activator, partial curve] |
| O=C(COc1ccc(S(=O)(=O)N2CCOCC2)cc1)NCc1ccco1 | inconclusive: 3.98 µM [activator, single point] |
| COC(=O)c1sc(=S)sc1C(=O)OC | active: 6.31 µM |
| O=C(N/N=C\c1cccc(Cl)c1)c1ccc(Cn2cccn2)o1 | inactive |
| Nc1cc(OC(=O)c2c(F)cccc2Cl)nn1S(=O)(=O)c1ccccc1 | inactive |
| CN(CCC#N)CC(=O)Nc1ccc(NC(=O)CN(C)CCC#N)cc1 | inconclusive: 17.8 µM [activator, single point] |
| Brc1ccc(C2N3CCCN23)cc1 (stereo not given) | active: 17.8 µM |
| CCOc1ccc(-c2nnc(-c3snc(-c4ccc(F)cc4)c3N=CN(C)C)o2)cc1 | inactive |
| CC(=Nc1ccccc1)C1=C(O)CCCC1=O | inconclusive: 3.98 µM [activator, single point] |
| O=C1C(Cl)=C(NCCN2CCOCC2)C(=O)c2ccccc21 | inactive |
| Cc1nnc(Cl)c2nn(-c3ccccc3F)c(C)c12 | inconclusive: 3.16 µM [activator, full curve, poor fit] |

| SMILES | Potency |
| --- | --- |
| Cc1noc(C)c1S(=O)(=O)N(CC(=O)N1CCCCCC1)c1ccc(C(C)C)cc1 | inconclusive: 2.82 µM [activator, partial curve] |
| Cc1ccc(C(=O)N2CCN(c3cc4c(cc3[N+](=O)[O-])n(C)c(=O)n4C)CC2)cc1 | active: 8.91 µM |
| Cc1ccnc(N2CCCC(C(=O)NCc3cccs3)C2)n1 (stereo not given) | inactive |
| Cc1ccc(-n2c(-c3ccccc3)cc(=O)nc2C)cc1 | inconclusive: 20 µM [activator, single point] |
| COc1cc(OC)c(NS(=O)(=O)c2ccc(Cl)c(C(=O)OC(C)C(=O)N3CCCC3)c2)cc1Cl (stereo not given) | inactive |
| O=C(O)c1ccc(-c2ccccc2)[nH]1 | inactive |
| CCOC(=O)CC(=O)CSc1nc(C)cc(-c2cccnc2)c1C#N | inconclusive: 3.98 µM [activator, single point] |
| O=C(Nc1nccs1)C(NS(=O)(=O)c1ccc(Br)s1)c1ccccc1 (stereo not given) | inconclusive: 20 µM [activator, single point] |
| O=C(N/N=C/c1ccccc1O)c1cccc2ccccc12 | inconclusive: 14.1 µM [activator, single point] |
| COc1ccc(C(=O)NC(=S)NC(C)(C)C)cc1Br | inconclusive: 20 µM [activator, single point] |
| O=C(c1ccco1)N(CCCN1CCOCC1)c1nc(-c2ccc(Cl)cc2)cs1 | inconclusive: 3.98 µM [activator, single point] |
| Clc1cc(Br)ccc1NCc1cccnc1 | inactive |
| O=C(NCc1ccc2c(c1)OCO2)c1ccc(Br)s1 | inactive |
| CCc1cccc(NC(=O)CN(c2ccc(OC)cc2)S(=O)(=O)c2c(C)n[nH]c2C)c1 | inactive |
| O=[N+]([O-])c1nn(-c2ccc3c(c2)OCCO3)n(O)c1=NC1CCCC1 | inactive |
| Cn1c(=NC(=O)c2ccc(S(=O)(=O)N3CCCc4ccccc43)cc2)sc2cc(S(C)(=O)=O)ccc21 | inconclusive: 0.316 µM [activator, partial curve, poor fit] |
| COCCCn1cc(C(=O)c2cc(Br)ccc2O)cc(C#N)c1=O | inactive |
| COc1ccc(N(CC(=O)NCCSCc2ccc(C)cc2)S(=O)(=O)c2ccccc2)cc1 | inconclusive: 11.2 µM [activator, single point] |
| Cc1ccc(C(=O)NC(=S)Nc2c(C)ccc3nsnc23)cc1 | active: 12.6 µM |
| CCCCCCN(C(=O)CCCN1C(=O)NC(c2ccc([N+](=O)[O-])cc2)C(C(=O)OCc2ccccc2)=C1C)C(C)C(=O)NCCCC (stereo not given) | inconclusive: 4.47 µM [activator, single point] |
| Cc1ccc(CS(=O)(=O)Cc2ccc(C(=O)NC3CCCCCC3)o2)cc1 | inconclusive: 12.6 µM [activator, single point] |
| COc1ccc(Nc2nc(C)cc(C)c2C(N)=O)cc1OC | inconclusive: 4.47 µM [activator, single point] |
| Cc1ccc(SCCC(=O)Nc2c(C)n(C)n(-c3ccccc3)c2=O)cc1 | inconclusive: 20 µM [activator, single point] |
| COC(=O)Cc1csc(Nc2ccccc2)n1 | inactive |
| CN(C)c1cc[n+](CC(=O)Nc2cc(C(F)(F)F)ccc2Cl)cc1 | inconclusive: 14.1 µM [activator, single point] |

| SMILES | Potency |
| --- | --- |
| Cc1ccc(OCC(=O)NNC(=O)CSc2nnc(-c3ccc(C)cc3)n2C)cc1 | inconclusive: 20 µM [activator, single point] |
| CC1(C)CC(=O)C=C(NCC2CCCO2)C1 (stereo not given) | inconclusive: 20 µM [activator, single point] |
| Cc1cc(C)[n+](-c2ccc(C(C)C)cc2)c2[nH]c(=O)[nH]c(=O)c12 | inconclusive: 20 µM [activator, single point] |
| CC(C)NC(=O)c1ccccc1NC(=O)Cc1ccc([N+](=O)[O-])cc1 | inactive |
| N#Cc1cccc(C(=O)Nc2cccc(S(=O)(=O)N3CCCC3)c2)c1 | inconclusive: 4.47 µM [activator, full curve, poor fit] |
| Cc1c(Cl)cccc1NC(=O)C1Cc2ccccc2CN1C(=O)c1ccccc1 (stereo not given) | inconclusive: 12.6 µM [activator, single point] |
| CCC(=O)NC(c1cccs1)c1cc([N+](=O)[O-])c2cccnc2c1O (stereo not given) | inconclusive: 4.47 µM [activator, single point] |
| Cc1cc(-c2ccc(C)c(S(=O)(=O)NCCc3ccco3)c2)on1 | inconclusive: 17.8 µM [activator, single point] |
| N#CCC(=O)N/N=C\c1cc(Br)ccc1OC/C=C/c1ccccc1 | inactive |
| C=CCNC(=O)COC(=O)C1CCN(S(=O)(=O)c2ccc3c(c2)OCCO3)CC1 | inactive |
| COc1ccccc1N=Nc1ccc(O)c2ncccc12 | inactive |
| CC(=O)n1ccnc1 | inactive |
| COC(=O)c1ccc(COc2ccc3c(C)c(C)c(=O)oc3c2)o1 | inconclusive: 20 µM [activator, single point] |
| O=C(NCc1cccs1)c1cc(S(=O)(=O)N2CCCCC2)ccc1Cl | inconclusive: 0.794 µM [activator, full curve, poor fit] |
| Cn1cc(S(=O)(=O)NCc2ccc(F)cc2)c(=O)n(C)c1=O | inconclusive: 0.891 µM [activator, partial curve] |
| Cc1ccccc1C(=O)Nc1cccc(C(=O)N/N=C/c2cc(Cl)cc([N+](=O)[O-])c2O)c1 | active: 7.94 µM |
| O=C(O)CSc1c2c(nc3cc(C(=O)Nc4cccc(C(F)(F)F)c4)ccc13)CCCC2 | inconclusive: 20 µM [activator, single point] |
| O=C(NNc1nc2c(F)cccc2s1)c1ccccc1 | inactive |
| CCc1cc(=O)oc2cc(C)cc(OC(C)C(=O)O)c12 (stereo not given) | inconclusive: 0.355 µM [activator, partial curve, poor fit] |
| C/C(CC1CC(C)OC1=O)=N\NC(N)=S (stereo not given) | inconclusive: 20 µM [activator, single point] |
| CCc1ccc(NC(=O)CSc2nc3ccccc3nc2N2CCCC2)cc1 | inconclusive: 2.82 µM [activator, single point] |
| COCCn1c(SCC(=O)Nc2nc(C)c(Cl)cc2Cl)nc2ccccc21 | inconclusive: 4.47 µM [activator, single point] |
| O=C(c1cccc(S(=O)(=O)N2CCc3ccccc3C2)c1)N1CCN(c2ccc(O)cc2)CC1 | inconclusive: 1.12 µM [activator, partial curve] |
| Cc1nn(Cc2ccccc2)c(Cl)c1C(=O)NCCc1ccc(Cl)cc1 | inactive |
| CCOc1ccc2nc(NC(=O)C3CCN(S(=O)(=O)c4cnc[nH]4)CC3)sc2c1 | inconclusive: 20 µM [activator, single point] |
